Screen size: about 310,000 compounds; about 17,000 (5.5%) were called active. The inconclusive results got no clear call from the source; some entries with a clear call stand among them for comparison. The call rests on the fitted dose curve; in most records, active means well fitted inhibition curve with a large enough effect; inconclusive means small, poorly fitted or top-dose-only effect, or effect the other way; inactive means no such curve, though single readings can be large or run the other way. Potencies beside an inconclusive call are fits to weak or partial responses and may not hold up.
molecular target: Nuclear receptor ROR-gamma (Mus musculus) (UniProt P51450); assay: qHTS for inhibitors of ROR gamma transcriptional activity; details: Drosophila S2 Gal4-RORgamma UAS-luciferase reporter, 20 h; series mostly up to 53.6 µM; further: nearly all actives have a fitted effect of over 60% in size
Method in brief: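 Read-out: Photinus luciferase luminescence; inhibitors lower reporter signal. Insect Schneider cells with Gal4-ROR gamma fusion under metallothionein promoter, UAS reporter; 700 uM final copper sulfate induction, 20 hr, ambient temperature.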
Potency means the concentration at half of the fitted maximal effect.

Sequences of proteins named here, by UniProt entry; tags and fusion partners are left off. A change or cut given only in a name is not applied to a line headed by its entry.
UniProt P51450: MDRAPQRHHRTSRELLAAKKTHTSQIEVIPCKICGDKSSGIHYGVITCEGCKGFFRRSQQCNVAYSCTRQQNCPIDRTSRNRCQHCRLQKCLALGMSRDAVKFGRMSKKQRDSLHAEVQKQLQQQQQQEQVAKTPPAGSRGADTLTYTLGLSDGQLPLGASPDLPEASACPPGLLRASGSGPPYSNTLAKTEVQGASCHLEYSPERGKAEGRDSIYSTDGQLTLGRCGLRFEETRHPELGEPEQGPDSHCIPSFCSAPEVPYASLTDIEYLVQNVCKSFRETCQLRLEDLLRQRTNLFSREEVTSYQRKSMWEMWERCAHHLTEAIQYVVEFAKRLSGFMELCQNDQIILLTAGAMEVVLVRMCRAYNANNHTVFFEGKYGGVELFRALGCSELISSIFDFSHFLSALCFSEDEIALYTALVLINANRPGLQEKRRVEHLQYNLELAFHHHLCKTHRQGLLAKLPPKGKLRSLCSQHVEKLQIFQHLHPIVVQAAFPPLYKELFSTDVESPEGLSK

Row | SMILES | Potency
1 | CC(=O)N1c2ccc(S(=O)(=O)N3CCC(C(=O)NCCc4ccc(Cl)cc4)CC3)cc2CC1C (configuration not stated) | inconclusive: 12.6 µM [activator, partial curve]
2 | CC(C)C[C@@H](CO)N1CCN(Cc2cccnc2)CCC1=O | inactive
3 | O=C(CSc1ccccc1C(=O)NCc1ccccc1)NC1CCCCCCC1 | inactive
4 | CCCn1nc(C(=O)OCC(=O)NC(C)c2ccccc2)c2ccccc2c1=O (configuration not stated) | inactive
5 | O=C(OCn1ncc(Cl)c(Cl)c1=O)c1ccc(F)cc1 | inconclusive: 35.5 µM [inhibitor, single point]
6 | CC(O)CNCCCCOc1ccc(OCc2ccccc2)cc1 (configuration not stated) | inactive
7 | CC(C)CCNC(=O)c1ccc(OC2CCN(S(=O)(=O)N(C)C)CC2)cc1 | inconclusive: 11.2 µM [activator, partial curve]
8 | COc1cc(NC(=S)Nc2cccc(C)n2)cc(OC)c1OC | active: 2.51 µM
9 | O=S(=O)(c1ccc(Br)s1)N1CCN(c2ccc(F)cc2)CC1 | inconclusive: 35.5 µM [activator, single point]
10 | C=CCN1/C(=C(\C#N)C2=NS(=O)(=O)c3ccccc32)N(C)c2ccccc21 | active: 11.2 µM
11 | Cc1nc2nc(SCC(=O)NCCN3CCOCC3)nn2c(C)c1Cc1ccccc1 | inactive
12 | COc1ccc(CNC(=O)Cc2ccc(OC)c(S(=O)(=O)N3CCOCC3)c2)cc1 | inactive
13 | CCOC(=O)c1sc(=S)n(-c2ccc3c(c2)OCO3)c1N | inconclusive: 2.51 µM [activator, partial curve, poor fit]
14 | C/C(=N\NC(=O)c1cc(O)cc(O)c1)c1ccc(NC(=O)Cc2ccccc2)cc1 | inconclusive: 35.5 µM [activator, single point]
15 | CCn1c(CNc2ccc(F)cc2)nnc1SCC(=O)N1CCCc2ccccc21 | inconclusive: 22.4 µM [activator, single point]
16 | CCOC(=O)C1(Cc2ccccc2C)CCCN(C(=O)CCc2cccnc2)C1 (configuration not stated) | inactive
17 | Cc1ccc(/C=N/NC(=S)NC(C)C)o1 | active: 1.41 µM
18 | Cc1ccc(/C=N/NC(=O)c2c(C)nc3ccc(Br)cn23)cc1 | active: 7.08 µM
19 | Cn1c(=O)c(-c2cccs2)nc2cnc(Oc3ccccc3)nc21 | inactive
20 | Cn1c(N2C(=O)CC(Cc3ccccc3)C2=O)nc2ccccc21 (configuration not stated) | inconclusive: 35.5 µM [activator, single point]
21 | O=C(NC1CCN(Cc2ccccc2)CC1)c1ccccc1F | inactive
22 | O=C(NC1CCCN(c2ccc(C(F)(F)F)cn2)C1)c1ccnc(Cl)c1 (configuration not stated) | inconclusive: 25.1 µM [activator, single point]
23 | O=C(CN1C(=O)c2cccc3cccc1c23)Nc1ccccc1 | inconclusive: 0.112 µM [activator, full curve, poor fit]
24 | O=C1/C(=C/c2ccc([N+](=O)[O-])cc2)C=C(c2ccccc2)N1c1ccc(O)cc1 | inactive
25 | COc1cc(C(=O)NCCCNc2ccc([N+](=O)[O-])cc2)cc(OC)c1OC | inconclusive: 10 µM [activator, partial curve]
26 | CCc1noc(C)c1C(=O)N1CCC(CCC(=O)Nc2cccc(C)c2)CC1 | inactive

Row | SMILES | Potency
27 | CN1C(=O)/C(=C/c2ccccc2OCc2cccc(F)c2)NC1=S | active: 3.98 µM
28 | OCCn1nc2c3ccccc3nc-2n(-c2ccccc2)c1=S | inactive
29 | CCC(C)(C)NC(=O)C(c1cccs1)N(CC1CCCO1)C(=O)Cn1nnc2ccccc21 (configuration not stated) | inconclusive: 7.94 µM [activator, partial curve]
30 | COCCNC(=S)NNC(=O)c1cc(-c2cccnc2)nc2ccccc12 | active: 12.6 µM
31 | CCCCn1c(SCc2c(C)noc2C)nc2cc(S(N)(=O)=O)ccc21 | inactive
32 | Brc1ccc(-c2noc(-c3ccccc3)n2)o1 | inconclusive: 0.794 µM [activator, full curve, poor fit]
33 | Cc1ccc(NC2=C(NC(=O)c3ccccc3)C(=O)c3ccccc3C2=O)cc1Cl | inconclusive: 11.2 µM [inhibitor, partial curve, poor fit]
34 | COc1ccc(C(=O)N2CCC[C@@]3(CCN(Cc4ccc(C#N)cc4)C3)C2)cc1 | inactive
35 | O=C(O)C1=C(C(=O)Nc2cccc(C(F)(F)F)c2)CCCC1 | inconclusive: 35.5 µM [activator, single point]
36 | COc1ccc(-c2cnnn2-c2ccc(N)cc2)cc1OC | inconclusive: 1.58 µM [activator, partial curve]
37 | CCc1ccc(C2CC(c3ccco3)=NN2S(C)(=O)=O)cc1 (configuration not stated) | inactive
38 | Cc1cc2ncn(CC3CC3(Cl)Cl)c2cc1C (configuration not stated) | inconclusive: 22.4 µM [inhibitor, partial curve, poor fit]
39 | CCCCc1ccc(-c2ccc(Br)cc2O)nc1 | inconclusive: 0.316 µM [activator, full curve]
40 | C[C@@H](NC(=O)c1nc[nH]c1C(=O)NCC(=O)OC(C)(C)C)c1ccccc1 | active: 10 µM
41 | CC(C)(C)OC(=O)NS(=O)(=O)NCc1ccco1 | inactive
42 | C/C(=N\NC(=O)c1ccc(C)cc1C)c1ccc2c(c1)OCO2 | inactive
43 | NNC(=O)c1cc2ccccc2[nH]1 | inactive
44 | C[n+]1c2n(c3ccccc31)N=C(c1ccc(-c3ccccc3)cc1)CS2 | inactive
45 | COC(=O)[C@@H](NCc1cccc(CN[C@H](C(=O)OC)C(C)C)c1)C(C)C | inactive
46 | CCn1nc(C)c(CNC(=O)c2ccc(OC3CCN(Cc4ccccn4)CC3)cc2)c1C | inactive
47 | CCOC(=O)c1[nH]cc(-c2ccccc2)c1N1CCOCC1 | inactive
48 | CCOC(=O)c1ccc(NC(=S)N2CCSC2c2ccc(Br)cc2)cc1 (configuration not stated) | inconclusive: 20 µM [inhibitor, single point]
49 | O=C(NC(=S)Nc1ccccc1N1CCCC1)c1cccs1 | active: 4.47 µM
50 | O=C(CNc1ccccc1)N/N=C/c1cc([N+](=O)[O-])ccc1N1CCCC1 | inconclusive: 11.2 µM [activator, partial curve]
51 | CCOC(=O)N1N=C(C)CC1(O)c1ccc(Cl)cc1 (configuration not stated) | inactive
52 | COC(=O)c1c(NC(NC(=O)c2ccccc2)(C(F)(F)F)C(F)(F)F)sc2c1CCN(C)C2 | inactive

Nothing new here: 2 of the compounds above.
Row | SMILES | Potency
29 | CCC(C)(C)NC(=O)C(c1cccs1)N(CC1CCCO1)C(=O)Cn1nnc2ccccc21 (configuration not stated) | inconclusive: 7.94 µM [activator, partial curve]
30 | COCCNC(=S)NNC(=O)c1cc(-c2cccnc2)nc2ccccc12 | active: 12.6 µM
